The results in this text go back to the supplement of paper PMC4749390.

Structures can show the parent of a compound that is named as a salt. The list shows a part of the results. This data set is noisy: repeats of one test often differ as much as different tests do.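 JEG3 cells stably express tetracycline-inducible wild-type human LRH-1, a highly sumoylated nuclear receptor. SUMO-sensitive transcripts APOC3 and MUC1, increased by SUMO-deficient LRH-1 or UBC9 knockdown, were quantified by RT-qPCR relative to TBP and DMSO controls. Primary hits had robust Z-scores above +2 or below -2, before toxicity and TBP filtering.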

This test relates to JEG3 expressing hLRH-1. The test can be described thus: MUC1 transcript change (ddCt vs TBP and DMSO), Z-score over library; higher = higher MUC1 expression. Particulars: 10 µM; time (hr): 24.
Consider `O=C1[C@H](CC[C@H](O)c2ccc(F)cc2)[C@@H](c2ccc(O)cc2)N1c1ccc(F)cc1` [ezetimibe], for which the “MUC1 transcript change (Z-score)” value turned out to be 0.768.

Take `O=C1/C(=C/c2cccs2)CCC/C1=C\c1cccs1` [tenylidone]: the “MUC1 transcript change (Z-score)” value was -0.39.

For `C/C=C\C1=C(C(=O)O)N2C(=O)C(NC(=O)C(N)c3ccc(O)cc3)C2SC1` (stereo unspecified) [cefprozil], the “MUC1 transcript change (Z-score)” value was -0.607.

`CC(O)(P(=O)(O)O)P(=O)(O)O` [etidronate disodium]: the “MUC1 transcript change (Z-score)” value amounted to 0.256.

On to `Clc1ccc2c(c1)CCc1cccnc1C2=C1CCNCC1` [desloratidine], for which the “MUC1 transcript change (Z-score)” value was determined as 0.426.

On to `Cc1cn([C@H]2C[C@H](N=[N+]=[N-])[C@@H](CO)O2)c(=O)[nH]c1=O` [zidovudine [azt]], for which the “MUC1 transcript change (Z-score)” value was -1.62.

For the compound `O=C(O)/C=C/C(=O)O` [fumaric acid], the “MUC1 transcript change (Z-score)” value was 0.709.

On to `CO[C@@]1(NC(=O)CSCC#N)C(=O)N2C(C(=O)O)=C(CSc3nnnn3C)CSC21` (stereo partly specified) [cefmetazole sodium], for which the “MUC1 transcript change (Z-score)” value was found to be 0.722.

On to `C#CCN(C)Cc1ccccc1` [Pargyline hydrochloride], for which the “MUC1 transcript change (Z-score)” value was determined as 0.729.

As to `CCOC(=O)c1ncn2c1CN(C)C(=O)c1cc(F)ccc1-2` [flumazenil], the “MUC1 transcript change (Z-score)” value worked out at 0.516.

As to `NC(=O)NC1NC(=O)NC1=O` (stereo unspecified) [allantoin], the “MUC1 transcript change (Z-score)” value is -0.351.

With `O=C1CCC(N2C(=O)c3ccccc3C2=O)C(=O)N1` (stereo unspecified) [thalidomide], the “MUC1 transcript change (Z-score)” value was -0.331.

For the compound `CNC(=O)c1c(I)c(NC(C)=O)c(I)c(C(=O)O)c1I` [iothalamic acid], the “MUC1 transcript change (Z-score)” value worked out at 0.677.

In the case of `CC(=O)Oc1cc2c(s1)CCN([C@H](C(=O)C1CC1)c1ccccc1F)C2` [prasugrel], the “MUC1 transcript change (Z-score)” value was -2.05.

As to `CCN(CC)CCNC(=O)COc1ccc(OC)cc1` [mefexamide], the “MUC1 transcript change (Z-score)” value was -1.21.

Take `CCOc1ccc(NC(=O)CC(C)O)cc1` (stereo unspecified) [bucetin]: the “MUC1 transcript change (Z-score)” value is -0.042.

As for `CC1(C)S[C@@H]2[C@H](NC(=O)Cc3ccccc3)C(=O)N2[C@H]1C(=O)O` [penicillin g potassium], the “MUC1 transcript change (Z-score)” value was -0.584.

Consider `Cc1cccc(Nc2ccccc2C(=O)O)c1C` [mefenamic acid], for which the “MUC1 transcript change (Z-score)” value is -0.822.

For `CC(=O)OCC1=C(C(=O)O)N2C(=O)[C@@H](NC(=O)Cc3cccs3)[C@H]2SC1` [cephalothin sodium], the “MUC1 transcript change (Z-score)” value was -1.37.

As to `CC(=O)c1ccc2c(c1)Sc1ccccc1N2CCCN1CCN(CCO)CC1` [acetophenazine maleate], the “MUC1 transcript change (Z-score)” value is -0.436.

Consider `CC(N)C(=O)OC(C)(C)Cc1ccc(Cl)cc1` (stereo unspecified) [Alaproclate hydrochloride], for which the “MUC1 transcript change (Z-score)” value is -0.202.

`CCCc1cc(C(N)=S)ccn1` [protionamide]: the “MUC1 transcript change (Z-score)” value stood at 0.112.

Turning to `CC(C)(C)C(=O)C(Oc1ccc(Cl)cc1)n1ccnc1` (stereo unspecified) [climbazole], the “MUC1 transcript change (Z-score)” value came out at 0.179.

For `CN1C(=O)CC(C)(c2ccccc2)C1=O` (stereo unspecified) [methsuximide], the “MUC1 transcript change (Z-score)” value was -0.0993.

Turning to `Cc1cc(O)nc(S)n1` [methylthiouracil], the “MUC1 transcript change (Z-score)” value was determined as 0.269.

With `CC(C)NCC(O)c1cc(O)cc(O)c1` (stereo unspecified) [metaproterenol], the “MUC1 transcript change (Z-score)” value was 0.193.

In the case of `Cc1nc2ccccc2n1Cc1ccc(Cl)cc1` [chlormidazole], the “MUC1 transcript change (Z-score)” value was -1.18.

Consider `CC(C)(O/N=C(\C(=O)N[C@@H]1C(=O)N2C(C(=O)O)=C(C[n+]3ccccc3)CS[C@H]12)c1csc(N)n1)C(=O)O` [ceftazidime], for which the “MUC1 transcript change (Z-score)” value is 0.888.

Regarding `CCOC(=O)[C@H](CCc1ccccc1)N[C@@H](C)C(=O)N1[C@H](C(=O)O)C[C@@H]2CCC[C@@H]21` [ramipril], the “MUC1 transcript change (Z-score)” value was 0.927.

On to `O=C(CCCN1CCC(O)(c2ccc(Cl)cc2)CC1)c1ccc(F)cc1` [Haloperidol], for which the “MUC1 transcript change (Z-score)” value turned out to be 0.318.

As to `CC(=O)OCC[N+](C)(C)C` [acetylcholine], the “MUC1 transcript change (Z-score)” value was 0.483.

Consider `OCCN1C[C@H](O)[C@@H](O)[C@H](O)[C@H]1CO` [miglitol], for which the “MUC1 transcript change (Z-score)” value is 0.797.

For `COc1ccc(-n2nc(CCC(=O)N(C)O)cc2-c2ccc(Cl)cc2)cc1` [tepoxalin], the “MUC1 transcript change (Z-score)” value was -0.6.

For the compound `O=C(O)c1ccccc1C(=O)Nc1ccc(S(=O)(=O)Nc2nccs2)cc1` [phthalylsulfathiazole], the “MUC1 transcript change (Z-score)” value was -0.317.

On to `CC/C=C\C/C=C\C/C=C\C/C=C\C/C=C\CCCC(=O)OCC` [omega-3-acid esters (epa shown)], for which the “MUC1 transcript change (Z-score)” value was -0.652.

As to `CO[C@@]1(NC(=O)C(C(=O)O)c2ccc(O)cc2)C(=O)N2C(C(=O)O)=C(CSc3nnnn3C)CO[C@@H]21` (stereo partly specified) [moxalactam disodium], the “MUC1 transcript change (Z-score)” value is -0.161.

On to `CC(=O)OCC(COC(C)=O)OC(C)=O` [triacetin], for which the “MUC1 transcript change (Z-score)” value was determined as 0.295.

As for `CC1=C(/C=C/C(C)=C/C=C/C(C)=C\C(=O)O)C(C)(C)CCC1` [isotretinon], the “MUC1 transcript change (Z-score)” value is -1.73.

Take `COc1c(C)c2c(c(O)c1C/C=C(\C)CCC(=O)OCCN1CCOCC1)C(=O)OC2` [mycophenolate mofetil]: the “MUC1 transcript change (Z-score)” value stood at 1.2.

Take `CC1=C(/C=C/C(C)=C/C=C/C(C)=C/C(=O)O)C(C)(C)CCC1` [tretinon]: the “MUC1 transcript change (Z-score)” value was -1.6.

As to `Nc1nc(O)c2ncn(CCC(CO)CO)c2n1` [penciclovir], the “MUC1 transcript change (Z-score)” value is -0.553.
